# Data published in publication PMC7819943, “Rice protein-binding microarrays: a tool to detect cis-acting elements near promoter regions in rice”.
# Protein sequences, listed by entry. Tags and fused reporters are not part of them.
# UniProt Q0JBA9, entry or part of it: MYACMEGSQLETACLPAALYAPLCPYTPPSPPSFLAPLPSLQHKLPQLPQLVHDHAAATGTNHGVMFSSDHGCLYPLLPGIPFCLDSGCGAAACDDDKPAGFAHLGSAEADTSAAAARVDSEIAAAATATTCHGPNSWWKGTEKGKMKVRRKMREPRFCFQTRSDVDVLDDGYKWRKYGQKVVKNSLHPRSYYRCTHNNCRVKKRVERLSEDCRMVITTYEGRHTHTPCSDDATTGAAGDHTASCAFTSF
# This is one part of the list.
# Molecular target: OsWRKY34 (Oryza sativa, UniProt Q0JBA9 1-250)
# Assay: protein-binding microarray (RPBM); PBS, 2% BSA, 51.3 ng/ul salmon testes DNA, 50 uM zinc acetate, 200 nM TF, 25 C, 1 h; high values mean tight binding
# Conditions: protein: recombinant; tags: N-terminal polyhistidine and DsRed monomer fusion (pET32a); label: CyDye5-dUTP incorporated in the synthesized complementary strand; 3' TTTTT single-stranded linker to array surface; dsDNA, one strand shown
# Summary of the method: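 Binding signal here means per-feature fluorescence intensity in arbitrary units. The values were read on an Axon 4000B scanner after a custom Agilent array, double-stranded by primer extension with Cy5-dUTP, was incubated with 200 nM protein at 25 °C for 1 h in PBS with 2% BSA, salmon testes DNA and 50 µM zinc acetate, then washed. The proteins were transcription factors with an N-terminal polyhistidine tag and DsRed, expressed in E. coli BL21-CodonPlus and purified on Ni–NTA.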
row,Sequence,binding signal
1,GGATGGTGGTGATGGCGAAAGATTAACGTAGAATGTACCGCGGAGTCACCTAGTGCAG,8620 fluorescence intensity (a.u.)
2,ATAGATGACGCCGTTGATTTTTTCTCATATGTTTGACCATCGGAGTCACCTAGTGCAG,11600 fluorescence intensity (a.u.)
3,TGATCCGGTTCCCTTTTGACCTCACTGCACTGTCCCAGATCGGAGTCACCTAGTGCAG,10300 fluorescence intensity (a.u.)
4,AGCAGAGTCATAGTTTTTTCATGTAATTCACTGACCTCTCCGGAGTCACCTAGTGCAG,8570 fluorescence intensity (a.u.)
5,CGGAGTACGCGGTACACGGCCATCGCTTTTAAAATCTTGTCGGAGTCACCTAGTGCAG,8040 fluorescence intensity (a.u.)
6,TATCACTTGCACTCCTATTCTTTCACTTATTCGCTTATTCCGGAGTCACCTAGTGCAG,8610 fluorescence intensity (a.u.)
7,GGACAGAACGTTGCCGCCTTTTATTCATGTAGAGACAGACCGGAGTCACCTAGTGCAG,8930 fluorescence intensity (a.u.)
8,CTGGCAGTGGAGCCACCGTGTCACTGTCACCTACCAAAGCCGGAGTCACCTAGTGCAG,8550 fluorescence intensity (a.u.)
9,TTTCCCGTGTTGTCATCTATCTGCTCATATTTTTTTAAAACGGAGTCACCTAGTGCAG,8320 fluorescence intensity (a.u.)
10,TTTAGGGTTTTCTCATTGAAGTTTATTTTTCAGCCTTTACCGGAGTCACCTAGTGCAG,8540 fluorescence intensity (a.u.)
11,TTTCATGTTCGTGAAAATTATACATTTTATATGCGCCTTTCGGAGTCACCTAGTGCAG,8720 fluorescence intensity (a.u.)
12,CACTTTCTAGATCGATGTTCATTTGGTTTTCTTCTTTACTCGGAGTCACCTAGTGCAG,9740 fluorescence intensity (a.u.)
13,CTTTAATTTTAATTAGAGTTTCTTGCATCGGTTTCCAATGCGGAGTCACCTAGTGCAG,27700 fluorescence intensity (a.u.)
14,GGGGTTATATATTTTTTATATCTAAATTTTGAGAAAGCTACGGAGTCACCTAGTGCAG,10600 fluorescence intensity (a.u.)
15,TTTTACAACAGTTTCAAGCAGTGGTCGCAAGTTATTTTCCCGGAGTCACCTAGTGCAG,8840 fluorescence intensity (a.u.)
16,GTCTCTGCTCCCCGCTATTTACACTTCGCAATACCCAGATCGGAGTCACCTAGTGCAG,8350 fluorescence intensity (a.u.)
17,GCATACTGGCATATTTCTTTCTTTCTTTCTTTTTGAAAAACGGAGTCACCTAGTGCAG,8480 fluorescence intensity (a.u.)
18,GGTGGGTAGGGTTAATTTTGGTTGGAGGTAGAGAGAGAGACGGAGTCACCTAGTGCAG,14300 fluorescence intensity (a.u.)
19,ACATTTACTAATCCACTTACACTTTCGTCCTCGCTTCATGCGGAGTCACCTAGTGCAG,8490 fluorescence intensity (a.u.)
20,GTCACCGCCCACAAACCCATCACCGGCCGGCGAGGGCCCTCGGAGTCACCTAGTGCAG,11900 fluorescence intensity (a.u.)
21,AACCTCAATGCCCTTATCCGATTGCCATTAGGGCTCTAGCCGGAGTCACCTAGTGCAG,8820 fluorescence intensity (a.u.)

# 4 records drawn at random from the list so far, as already listed:
row,Sequence,binding signal
11,TTTCATGTTCGTGAAAATTATACATTTTATATGCGCCTTTCGGAGTCACCTAGTGCAG,8720 fluorescence intensity (a.u.)
5,CGGAGTACGCGGTACACGGCCATCGCTTTTAAAATCTTGTCGGAGTCACCTAGTGCAG,8040 fluorescence intensity (a.u.)
12,CACTTTCTAGATCGATGTTCATTTGGTTTTCTTCTTTACTCGGAGTCACCTAGTGCAG,9740 fluorescence intensity (a.u.)
7,GGACAGAACGTTGCCGCCTTTTATTCATGTAGAGACAGACCGGAGTCACCTAGTGCAG,8930 fluorescence intensity (a.u.)

# (continued)

row,Sequence,binding signal
1,CCTCTTTTTCTATCCTGGATTCGCCGCTGGTACGGGTTGACGGAGTCACCTAGTGCAG,14000 fluorescence intensity (a.u.)
2,GACGTCAGCATACACCTCGGACACTGAGGTCTTAGTTTCACGGAGTCACCTAGTGCAG,8310 fluorescence intensity (a.u.)
3,TGCAAACCCGCCTATTCAGGACGATCCAGACACATCACATCGGAGTCACCTAGTGCAG,8040 fluorescence intensity (a.u.)
4,TAACCCGCCTCCGACTCTTGGTTCTGCTTCGCCTAACATTCGGAGTCACCTAGTGCAG,8480 fluorescence intensity (a.u.)
5,CAATGCACTGTTCATCTTCAGTAGTTATGTTTTCTCAGTGCGGAGTCACCTAGTGCAG,10400 fluorescence intensity (a.u.)
6,TGCACCCTCTCAACACTCCGCGGCAATAACTCCTTCGCCCCGGAGTCACCTAGTGCAG,8940 fluorescence intensity (a.u.)
7,TGCTGTTGAGTTGCATTCCTGATTGCTTTGCCTTTTCTAACGGAGTCACCTAGTGCAG,8620 fluorescence intensity (a.u.)
8,ATATATATGCAGCCAGCATCTCTCTCCCTGTGATCAAATTCGGAGTCACCTAGTGCAG,8310 fluorescence intensity (a.u.)
9,GATATTATTTCGGCTGATTTTTTTTTTCATTTTTTATGAACGGAGTCACCTAGTGCAG,10200 fluorescence intensity (a.u.)
10,AGTGAGTTTGTTTGTTTTGTTTTCCGCGCGTATGTTTTCCCGGAGTCACCTAGTGCAG,9060 fluorescence intensity (a.u.)
11,GTGCTGCCCAATTCCTCCACGCATCGCTGCATTTGGGTGACGGAGTCACCTAGTGCAG,8800 fluorescence intensity (a.u.)
12,CGGGGAGATCATGCTTCAATTCTTTCTCGGCGCGGCGGAGCGGAGTCACCTAGTGCAG,8700 fluorescence intensity (a.u.)
13,GCAGCAGGTGGATTTGCTTTGCCCTTCTCGCTTTTGTACACGGAGTCACCTAGTGCAG,10600 fluorescence intensity (a.u.)
14,TTATTAACGATGGTTTGGTTGTGAGGTGTTGGAGTCCTTTCGGAGTCACCTAGTGCAG,8110 fluorescence intensity (a.u.)
15,ACCCTTCAACGTCTGCAGGCGCGCTTCGCGAACGCGGTCCCGGAGTCACCTAGTGCAG,9300 fluorescence intensity (a.u.)
16,TTCTTTTGTTGTGTGGGTGTATGTTTTGGTTATGTGCATTCGGAGTCACCTAGTGCAG,8810 fluorescence intensity (a.u.)
17,ACGATGGATCGTAATTTCGTATTACATGTTTATTTTTGACCGGAGTCACCTAGTGCAG,8200 fluorescence intensity (a.u.)
18,TGTGCGGGTGATTTGTTATAACGACGCGTGTGGTGGGGCACGGAGTCACCTAGTGCAG,8770 fluorescence intensity (a.u.)
19,CCACATGCCGTCGTCGCCGTTCCAGTGCTTTCTGTCACCACGGAGTCACCTAGTGCAG,11800 fluorescence intensity (a.u.)
20,CTCGCCATCTCTGCCGCCGGTCCGCCGCCTCGCTCGCTCGCGGAGTCACCTAGTGCAG,9470 fluorescence intensity (a.u.)
21,ATCCCGCTTATCCCACTTCTAATTCATTTTTTCTTTTAAACGGAGTCACCTAGTGCAG,10900 fluorescence intensity (a.u.)

row,Sequence,binding signal
1,TTGCTCGCAGCTGCTTCTCCCTCAGCCAATCTGTCTGATCCGGAGTCACCTAGTGCAG,8310 fluorescence intensity (a.u.)
2,GCTTTCAGTTTAGTCTAGTGCATGTGCAGGGCTTCCCATCCGGAGTCACCTAGTGCAG,9860 fluorescence intensity (a.u.)
3,TTGTCCTGCGCTGTTCCTCTCTATCGACTCTCTCACTCCTCGGAGTCACCTAGTGCAG,13800 fluorescence intensity (a.u.)
4,CATCCCAGGTGGGGCCCTAGCCTACTTGTAGCACACCCGGCGGAGTCACCTAGTGCAG,8060 fluorescence intensity (a.u.)
5,AGTTTCATGTTTTTCATGGGTATCTAATCTGAGCCGTTGACGGAGTCACCTAGTGCAG,9110 fluorescence intensity (a.u.)
6,TACCTGCTGCACTTTGCCATCCATCGATTTGATTTTATATCGGAGTCACCTAGTGCAG,8880 fluorescence intensity (a.u.)
7,AAGTTCCTTTTATGCATAGGCCGTGTTTAGTTCAGCGCAACGGAGTCACCTAGTGCAG,10800 fluorescence intensity (a.u.)
8,GAAACAGGCGCACATCCCACACCTACCCATTTGACCGTACCGGAGTCACCTAGTGCAG,8220 fluorescence intensity (a.u.)
9,TTCTGTTTCATATTATAATAAGTAATTTGACTTTTTCCTTCGGAGTCACCTAGTGCAG,8330 fluorescence intensity (a.u.)
10,TGGGAGGTCTCGTGGTGAATATTCCGCCGCTCGGTATCTTCGGAGTCACCTAGTGCAG,8140 fluorescence intensity (a.u.)
11,ATCAAACCTTTCATACACACAACTTTTCTATCACATCGTACGGAGTCACCTAGTGCAG,8560 fluorescence intensity (a.u.)
12,ACAGATTTTGTATGAATTACACTAACTTCTCCGAATCTACCGGAGTCACCTAGTGCAG,9500 fluorescence intensity (a.u.)
13,AAAATCTCGTTCCGTAAATTTACGAGTTAACCCTTGTCCACGGAGTCACCTAGTGCAG,8250 fluorescence intensity (a.u.)
14,AGATTTTGGGTGGATGTGACAATATATATATATATATATACGGAGTCACCTAGTGCAG,11800 fluorescence intensity (a.u.)
15,GGGTGCATTGATGTTTTTGAAAGCTATTATAGGATCAATCCGGAGTCACCTAGTGCAG,8220 fluorescence intensity (a.u.)
16,AGCACCGGCATCCGGATCCGCCGTCCCCGGGCGTCCACCTCGGAGTCACCTAGTGCAG,8640 fluorescence intensity (a.u.)
17,GATCATCTGTAGTCTGTAGAACAATCCTGTTTTCTATTCTCGGAGTCACCTAGTGCAG,8310 fluorescence intensity (a.u.)
18,ACATCTCTATCTCCGGATCTCATCTCACTCCGCTAGCTTTCGGAGTCACCTAGTGCAG,9700 fluorescence intensity (a.u.)
19,AAATCATTTAGAAACACAACCTTTTCCACTGTTCAGGATTCGGAGTCACCTAGTGCAG,8030 fluorescence intensity (a.u.)
20,ACTACCAACAGATCAGCAGATAGCCTATTCCAATCCGTTCCGGAGTCACCTAGTGCAG,8320 fluorescence intensity (a.u.)
21,TCCAACGCGCCTCTTCACTTCGTCCTCTGCCACGTCTTGTCGGAGTCACCTAGTGCAG,13100 fluorescence intensity (a.u.)

row,Sequence,binding signal
1,TTCAGACTTGTGAATTTTGGTCCAATTTGTCGTGTCAATTCGGAGTCACCTAGTGCAG,9740 fluorescence intensity (a.u.)
2,GGGGCCGGGTGTACTGTTTGGTGGTACTGCAGCCGTCGAGCGGAGTCACCTAGTGCAG,10400 fluorescence intensity (a.u.)
3,TAGATCCCTACTCATTTCTTATTATTTTAATTTCCTTATGCGGAGTCACCTAGTGCAG,8700 fluorescence intensity (a.u.)
4,GCAGATCACAGATCCGGTTCAATCTTCACCGTGTTTATTACGGAGTCACCTAGTGCAG,8760 fluorescence intensity (a.u.)
5,TAATAGATGACGCCGTTGACTTTTTCTCACATGTTTGACCCGGAGTCACCTAGTGCAG,33000 fluorescence intensity (a.u.)
6,GCATTTGCTAGAACAATCACTACTCGCGTCGACCAGATCTCGGAGTCACCTAGTGCAG,9480 fluorescence intensity (a.u.)
7,GGCCTCTCGTCTCGCCTCGACTCGCCGGGATTTCCCGAACCGGAGTCACCTAGTGCAG,8270 fluorescence intensity (a.u.)
8,CGTCTATTTTTTTTATTCAACGGTAGTTTCCAGGTTTACACGGAGTCACCTAGTGCAG,9990 fluorescence intensity (a.u.)
9,TCATTATAGAAGAGATTCTGCAGTATCTGGTTGGTTTCCTCGGAGTCACCTAGTGCAG,8240 fluorescence intensity (a.u.)
10,CATCTCAATTTGGATCTTTGGTCCCCACTTTGCATGCCATCGGAGTCACCTAGTGCAG,8760 fluorescence intensity (a.u.)
11,CATATATTTCACTCTTCTTTTAATCATTACAACTTCTTCTCGGAGTCACCTAGTGCAG,8810 fluorescence intensity (a.u.)
12,GTTAGGGTTTTTTTTATTTTTCGATTTTTTTTGTGTTTTTCGGAGTCACCTAGTGCAG,12000 fluorescence intensity (a.u.)
13,TCTGTTGCCTCTCTGCTTTCTCGTGCAGCCCGTCTCGTACCGGAGTCACCTAGTGCAG,8960 fluorescence intensity (a.u.)
14,TCTTCTTTTTCACCCAATTACCTATATGCTTAGCTCATCACGGAGTCACCTAGTGCAG,8320 fluorescence intensity (a.u.)
15,GTCAATGGCCTGCTCGGTGCTCTCTCTTGCGTCGATGGCCCGGAGTCACCTAGTGCAG,9190 fluorescence intensity (a.u.)
16,TTCACCACGTGTCAGCCTCTGATTGGCCGCTCCTCTTTGCCGGAGTCACCTAGTGCAG,8790 fluorescence intensity (a.u.)
17,TATTTCGTACGTGCTTATCTTTTTCTTGATTAATTAAATACGGAGTCACCTAGTGCAG,8380 fluorescence intensity (a.u.)
18,TTTCTGCTTGCCTCGCTCTCTCGCATCGTCGCATTGGTACCGGAGTCACCTAGTGCAG,11100 fluorescence intensity (a.u.)
19,ATCCCTTTTTTCCCCTGGATTTTAACCGTGTGCAATTTGGCGGAGTCACCTAGTGCAG,8600 fluorescence intensity (a.u.)
20,CTTTGCTACTCGCTATATATACGCTCTCCACCCGTCTCGCCGGAGTCACCTAGTGCAG,9370 fluorescence intensity (a.u.)
21,GTCTACAACCACGCGCCGCCACCGTCCTTACCGCCGCCCGCGGAGTCACCTAGTGCAG,10300 fluorescence intensity (a.u.)
